Measurements reported in PubChem BioAssay AID743121 (NCATS, 2013)
Aim: 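Partners whose loss is lethal together with topoisomerase I blockade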 (primary screen). Cells: MDA-MB-231 cells, a human breast cancer line. Knock-down reagent: single siRNA against human genes, 20 nM siRNA (0.8 pmol per well). Timing: 120 h (drug added 48 h after transfection, read 72 h later). Conditions: camptothecin 20 nM (about EC30) for 72 h; vehicle 0.1% DMSO in parallel plates. Measurement: 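Cell viability by ATP luminescence (CellTiter-Glo) as % of non-targeting siRNA wells, and the log2 ratio of viability without drug over viability with camptothecin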. Scale: log2 vehicle/camptothecin viability: higher = stronger sensitisation to camptothecin. Rule for the call: 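Active genes have an RSA gene-level p-value below 0.001, computed from the ratios of their separate siRNAs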.
This is a random part of about 26,000 reagents tested. 167 of them (0.63%) count as active. 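Calls are per gene from RSA p-values that are not deposited; an individual active-marked siRNA can sensitise only weakly.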 Reagents against one gene are numbered here. Further read-outs or replicates are left out here.

After knock-down of PSMC4 #1, the record shows log2 vehicle/camptothecin viability -0.15; inactive. After knock-down of PSMC4 #2, the screen gave log2 vehicle/camptothecin viability -0.742; inactive. Against PSMC4 #3 the deposit lists log2 vehicle/camptothecin viability 0.0931; inactive. Silencing of PLCH2 #1 gave: log2 vehicle/camptothecin viability -0.222; inactive. PLCH2 #2 showed log2 vehicle/camptothecin viability -0.0172; inactive. After knock-down of PLCH2 #3, the screen gave log2 vehicle/camptothecin viability -0.598; inactive.

Against PLCH2 #4, the entry reads log2 vehicle/camptothecin viability 0.0298; inactive. After knock-down of MED23 #1, the record shows log2 vehicle/camptothecin viability -0.121; inactive. Knock-down of MED23 #2 resulted in: log2 vehicle/camptothecin viability -0.105; inactive. MED23 #3 gave log2 vehicle/camptothecin viability 0.156; inactive. For MED23 #4, the values are log2 vehicle/camptothecin viability -0.139; inactive. Against PRX #1, the entry reads log2 vehicle/camptothecin viability 0.0227; inactive.

PRX #2 showed log2 vehicle/camptothecin viability -0.297; inactive. PRX #3 scored log2 vehicle/camptothecin viability 0.0624; inactive. Against PRX #4, the values are log2 vehicle/camptothecin viability -0.301; inactive. CEBPD #1 gave log2 vehicle/camptothecin viability -0.203; inactive. CEBPD #2 gave log2 vehicle/camptothecin viability -0.0369; inactive. With knock-down of CEBPD #3 the results were log2 vehicle/camptothecin viability 0.3; inactive.

Depletion of CEBPD #4 resulted in: log2 vehicle/camptothecin viability -0.553; inactive.

Entries listed so far whose target name begins with M or m:
MED23 #1 | log2 vehicle/camptothecin viability: -0.121; Outcome: inactive
MED23 #2 | log2 vehicle/camptothecin viability: -0.105; Outcome: inactive
MED23 #3 | log2 vehicle/camptothecin viability: 0.156; Outcome: inactive
MED23 #4 | log2 vehicle/camptothecin viability: -0.139; Outcome: inactive

The list goes on.
Against BRD3 #1 the deposit lists log2 vehicle/camptothecin viability -0.21; inactive. Depletion of BRD3 #2 came out at: log2 vehicle/camptothecin viability 0.0614; inactive. Depletion of BRD3 #3 resulted in: log2 vehicle/camptothecin viability -0.568; inactive. Knock-down of BRD3 #4 resulted in: log2 vehicle/camptothecin viability -0.327; inactive. After knock-down of LGALS1 #1, the record shows log2 vehicle/camptothecin viability -0.476; inactive. For LGALS1 #2 the deposit lists log2 vehicle/camptothecin viability -0.241; inactive.

After knock-down of LGALS1 #3, the screen gave log2 vehicle/camptothecin viability 0.262; inactive. Depletion of LGALS1 #4 came out at: log2 vehicle/camptothecin viability -0.799; inactive. After knock-down of TUBGCP6 #1, the screen gave log2 vehicle/camptothecin viability -0.672; inactive. TUBGCP6 #2 gave log2 vehicle/camptothecin viability -0.0908; inactive. TUBGCP6 #3 gave log2 vehicle/camptothecin viability -0.185; inactive. TUBGCP6 #4 scored log2 vehicle/camptothecin viability -0.0541; inactive.

CYP26A1 #1 gave log2 vehicle/camptothecin viability -0.396; inactive. CYP26A1 #2 gave log2 vehicle/camptothecin viability -0.235; inactive. Against CYP26A1 #3, the entry reads log2 vehicle/camptothecin viability 0.219; inactive. CYP26A1 #4 gave log2 vehicle/camptothecin viability -0.614; inactive. With knock-down of ANKMY1 #1 the results were log2 vehicle/camptothecin viability 0.713; inactive. For ANKMY1 #2 the deposit lists log2 vehicle/camptothecin viability 0.0573; inactive.

ANKMY1 #3 gave log2 vehicle/camptothecin viability -0.224; inactive. Knock-down of ANKMY1 #4 resulted in: log2 vehicle/camptothecin viability -0.5; inactive. PPTC7 #1 gave log2 vehicle/camptothecin viability -0.165; inactive. Against PPTC7 #2 the deposit lists log2 vehicle/camptothecin viability -0.0721; inactive. With knock-down of PPTC7 #3 the results were log2 vehicle/camptothecin viability -0.529; inactive. With knock-down of PPTC7 #4, the record shows log2 vehicle/camptothecin viability -0.677; inactive.

Depletion of OR4D2 #1 gave: log2 vehicle/camptothecin viability 0.266; inactive. Against OR4D2 #2 the deposit lists log2 vehicle/camptothecin viability -0.411; inactive. After knock-down of OR4D2 #3, the screen gave log2 vehicle/camptothecin viability -0.734; inactive. OR4D2 #4 scored log2 vehicle/camptothecin viability -0.216; inactive.
